No constants are given. Whether binding was seen depends on the method and setting. Tags and fused reporters may be left off the sequences shown.
What was measured:
[1] = biological target: T1, apo-DltC1-S38A, C-terminal His6 tag (Lactiplantibacillus plantarum) (UniProt Q88VM8); assay: MST; one protein labelled with NHS red fluorescent dye (RED-NHS Monolith NT kit); Hepes 25 mM pH 7.5, NaCl 300 mM, Tween20 0.05%; 22 °C; triplicate; both purified
T1 sequence: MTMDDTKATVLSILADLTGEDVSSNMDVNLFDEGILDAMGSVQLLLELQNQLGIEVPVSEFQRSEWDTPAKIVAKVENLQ

[2] = biological target: T1, apo-DltC1-S38A, C-terminal His6 tag (Lactiplantibacillus plantarum); assay: NMR titration; unlabelled DltA proteins added to 15N-labelled apo- or holo-DltC1 (150 to 300 μM); 1H,15N BEST-TROSY, 25 °C, 20 mM HEPES pH 6.5, 150 mM NaCl, 7% D2O; both purified

binding [1]: no binding
B1: DltA-5 M mutant (K366A, K369A, D401A, Y435A, K440A), C-terminal His6 tag (enzyme, UniProt Q88VM6 1-508)
chain: MIKNIITTIDDYARTQPNNVVYDVQGVTHTYAELKAYSDALAAHLDTLDLPAKDPIIVFGGQTFEMIATFLGVVKSGRAYIPIDTHSPNERLTMINEIAKPAAVIAVADLPTGVGTTPVITPDQLAAIFATPVDYQADHVVSGDDNYYIIFTSGTTGMPKGVQISHDNLVSYVDWMLSDDFGLPDQPNSLSQPPYSFDLSVMDVYPTLALGGTLYALPKAVTDDFKQLFAALPTLPINVWVSTPSFMDICLLEPKFNAENLPTLTHFLFCGEELTHKTAATLKKRFPDARIFNTYGPTETCVAVTQIEITDAALAQYDRLPIGYAKADTRILVVDENGEAVPNGTEGELIIAGPSVSKGYLNNSEATAAAFFELDGQPAYHSGDIGTMDADGLFRYRGRVAFQIKMHGYRIELEEVDHFLAQQQHIKQAVAVPKADKEHAVTQMIAYVVPKPNDFESDFALTTAIKKDLQGMMMEYMIPQRFVYQTSLPLTPNGKIDVKSIIKEVNPE
binding [2]: no binding (tested: protein-to-protein ratio up to 1.8)

From article PMC9338922, “DltC acts as an interaction hub for AcpS, DltA and DltB in the teichoic acid D-alanylation pathway of Lactiplantibacillus plantarum” (Scientific Reports, 2022)
